From the supplement of paper PMC10849652
This is one part of the list. Residues, ends and D or L forms follow the SMILES beside them. *: point of attachment. Cbz = O=C(OCc1ccccc1)*

Chains of the proteins cited; added tags and fusions are not shown. Lines headed by an entry give the natural chain unless they say otherwise; changes in a name come on top.
UniProt Q5VW32: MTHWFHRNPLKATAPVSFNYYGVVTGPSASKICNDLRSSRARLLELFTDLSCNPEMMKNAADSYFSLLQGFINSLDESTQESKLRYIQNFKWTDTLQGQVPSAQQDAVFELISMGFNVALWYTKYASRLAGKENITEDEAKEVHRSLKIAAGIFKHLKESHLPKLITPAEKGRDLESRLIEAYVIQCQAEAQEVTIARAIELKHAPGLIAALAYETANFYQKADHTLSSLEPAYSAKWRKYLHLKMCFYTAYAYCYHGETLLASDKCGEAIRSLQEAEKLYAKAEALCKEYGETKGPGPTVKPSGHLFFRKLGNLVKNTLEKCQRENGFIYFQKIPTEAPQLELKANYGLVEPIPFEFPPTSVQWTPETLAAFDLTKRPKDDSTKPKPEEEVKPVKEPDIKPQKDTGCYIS
UniProt Q8WXE1: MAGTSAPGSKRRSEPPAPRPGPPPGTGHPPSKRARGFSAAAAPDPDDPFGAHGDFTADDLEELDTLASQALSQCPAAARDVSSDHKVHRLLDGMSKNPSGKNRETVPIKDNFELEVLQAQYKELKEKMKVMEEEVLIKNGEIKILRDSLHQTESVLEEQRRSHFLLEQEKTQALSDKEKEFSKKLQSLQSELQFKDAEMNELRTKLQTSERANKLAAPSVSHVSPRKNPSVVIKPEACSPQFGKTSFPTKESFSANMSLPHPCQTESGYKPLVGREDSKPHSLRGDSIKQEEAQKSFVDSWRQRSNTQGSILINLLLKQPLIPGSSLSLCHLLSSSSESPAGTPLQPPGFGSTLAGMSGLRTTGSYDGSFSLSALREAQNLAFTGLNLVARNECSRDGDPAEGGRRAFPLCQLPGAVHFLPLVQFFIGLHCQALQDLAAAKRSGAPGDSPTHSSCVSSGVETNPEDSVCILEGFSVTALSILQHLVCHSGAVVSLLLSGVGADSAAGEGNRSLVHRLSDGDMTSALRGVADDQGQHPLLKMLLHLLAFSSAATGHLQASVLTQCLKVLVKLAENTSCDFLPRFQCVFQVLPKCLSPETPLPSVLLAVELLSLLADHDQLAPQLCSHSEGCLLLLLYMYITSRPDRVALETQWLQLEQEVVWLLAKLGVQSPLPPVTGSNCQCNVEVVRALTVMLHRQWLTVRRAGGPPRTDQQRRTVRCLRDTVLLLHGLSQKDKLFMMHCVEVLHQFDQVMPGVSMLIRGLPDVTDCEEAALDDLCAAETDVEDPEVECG
UniProt O95861: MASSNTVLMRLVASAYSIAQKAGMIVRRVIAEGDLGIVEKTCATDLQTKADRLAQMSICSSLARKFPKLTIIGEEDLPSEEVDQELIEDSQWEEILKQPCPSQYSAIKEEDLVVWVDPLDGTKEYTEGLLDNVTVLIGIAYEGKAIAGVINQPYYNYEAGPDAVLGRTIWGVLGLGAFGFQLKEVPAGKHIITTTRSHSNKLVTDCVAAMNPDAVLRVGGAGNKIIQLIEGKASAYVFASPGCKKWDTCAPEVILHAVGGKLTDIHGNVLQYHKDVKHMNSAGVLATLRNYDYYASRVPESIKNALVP
UniProt Q07817, whole entry, looked up: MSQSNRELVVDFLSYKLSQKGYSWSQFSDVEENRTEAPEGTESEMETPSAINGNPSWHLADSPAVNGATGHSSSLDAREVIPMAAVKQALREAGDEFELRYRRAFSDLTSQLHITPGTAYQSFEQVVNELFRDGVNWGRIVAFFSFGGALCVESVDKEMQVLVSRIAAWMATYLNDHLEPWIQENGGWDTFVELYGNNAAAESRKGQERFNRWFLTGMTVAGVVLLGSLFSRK
UniProt Q96G01: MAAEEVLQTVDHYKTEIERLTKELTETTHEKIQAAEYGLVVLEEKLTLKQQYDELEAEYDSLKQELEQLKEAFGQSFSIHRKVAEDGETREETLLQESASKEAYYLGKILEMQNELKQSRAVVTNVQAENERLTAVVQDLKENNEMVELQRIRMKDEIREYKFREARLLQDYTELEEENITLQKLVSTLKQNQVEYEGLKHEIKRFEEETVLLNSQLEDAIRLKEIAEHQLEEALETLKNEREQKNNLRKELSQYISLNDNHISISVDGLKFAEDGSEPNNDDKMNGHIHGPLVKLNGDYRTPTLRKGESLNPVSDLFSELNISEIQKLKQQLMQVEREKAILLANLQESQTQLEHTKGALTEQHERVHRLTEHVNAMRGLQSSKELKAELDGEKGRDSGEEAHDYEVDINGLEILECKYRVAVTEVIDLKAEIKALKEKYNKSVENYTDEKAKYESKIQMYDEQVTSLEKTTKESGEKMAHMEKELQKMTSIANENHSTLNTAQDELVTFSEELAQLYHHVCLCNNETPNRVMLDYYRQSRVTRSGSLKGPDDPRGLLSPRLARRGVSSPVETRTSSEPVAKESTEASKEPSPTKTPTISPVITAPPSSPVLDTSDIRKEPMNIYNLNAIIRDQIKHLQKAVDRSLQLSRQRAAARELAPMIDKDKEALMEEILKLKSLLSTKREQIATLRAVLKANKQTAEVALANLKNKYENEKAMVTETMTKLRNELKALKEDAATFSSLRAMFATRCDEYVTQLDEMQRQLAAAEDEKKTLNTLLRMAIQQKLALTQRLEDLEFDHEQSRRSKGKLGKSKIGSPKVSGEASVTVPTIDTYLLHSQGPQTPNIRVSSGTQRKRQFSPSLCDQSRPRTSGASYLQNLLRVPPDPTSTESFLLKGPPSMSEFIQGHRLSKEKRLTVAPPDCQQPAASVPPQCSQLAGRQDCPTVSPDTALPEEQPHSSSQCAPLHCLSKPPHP
UniProt Q99933: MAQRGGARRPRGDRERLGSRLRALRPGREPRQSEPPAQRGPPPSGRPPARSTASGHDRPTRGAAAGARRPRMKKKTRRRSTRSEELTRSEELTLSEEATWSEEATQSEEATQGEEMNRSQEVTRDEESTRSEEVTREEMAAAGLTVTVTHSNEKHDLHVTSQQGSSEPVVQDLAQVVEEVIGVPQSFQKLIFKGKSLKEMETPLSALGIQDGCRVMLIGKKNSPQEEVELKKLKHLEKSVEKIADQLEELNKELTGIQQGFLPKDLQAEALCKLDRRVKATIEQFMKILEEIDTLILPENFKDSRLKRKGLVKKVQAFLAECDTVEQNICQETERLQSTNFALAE
UniProt O14867: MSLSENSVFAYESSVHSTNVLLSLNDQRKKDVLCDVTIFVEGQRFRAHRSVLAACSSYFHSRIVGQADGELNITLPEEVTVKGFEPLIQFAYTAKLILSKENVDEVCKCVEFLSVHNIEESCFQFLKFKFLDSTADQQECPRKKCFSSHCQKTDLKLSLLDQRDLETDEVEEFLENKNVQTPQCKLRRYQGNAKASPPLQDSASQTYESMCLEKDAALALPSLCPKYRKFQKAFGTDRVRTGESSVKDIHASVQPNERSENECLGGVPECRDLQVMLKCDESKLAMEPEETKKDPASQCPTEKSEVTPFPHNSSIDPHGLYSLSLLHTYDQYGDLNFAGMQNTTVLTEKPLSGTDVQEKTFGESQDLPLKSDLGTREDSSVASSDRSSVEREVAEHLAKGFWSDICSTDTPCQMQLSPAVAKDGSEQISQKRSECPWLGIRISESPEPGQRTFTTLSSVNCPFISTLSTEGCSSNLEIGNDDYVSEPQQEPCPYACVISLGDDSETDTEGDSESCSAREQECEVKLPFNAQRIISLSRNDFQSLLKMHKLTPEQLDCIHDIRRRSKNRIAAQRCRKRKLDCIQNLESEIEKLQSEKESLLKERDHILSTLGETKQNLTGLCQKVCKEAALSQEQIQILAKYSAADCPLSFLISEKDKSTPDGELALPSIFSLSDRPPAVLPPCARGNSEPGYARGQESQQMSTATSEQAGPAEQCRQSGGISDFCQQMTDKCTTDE
UniProt Q6QNY1: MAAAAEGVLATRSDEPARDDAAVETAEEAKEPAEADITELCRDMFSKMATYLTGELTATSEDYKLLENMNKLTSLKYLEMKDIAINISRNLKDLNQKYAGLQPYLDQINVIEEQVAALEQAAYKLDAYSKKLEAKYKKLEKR
UniProt Q9UBB4: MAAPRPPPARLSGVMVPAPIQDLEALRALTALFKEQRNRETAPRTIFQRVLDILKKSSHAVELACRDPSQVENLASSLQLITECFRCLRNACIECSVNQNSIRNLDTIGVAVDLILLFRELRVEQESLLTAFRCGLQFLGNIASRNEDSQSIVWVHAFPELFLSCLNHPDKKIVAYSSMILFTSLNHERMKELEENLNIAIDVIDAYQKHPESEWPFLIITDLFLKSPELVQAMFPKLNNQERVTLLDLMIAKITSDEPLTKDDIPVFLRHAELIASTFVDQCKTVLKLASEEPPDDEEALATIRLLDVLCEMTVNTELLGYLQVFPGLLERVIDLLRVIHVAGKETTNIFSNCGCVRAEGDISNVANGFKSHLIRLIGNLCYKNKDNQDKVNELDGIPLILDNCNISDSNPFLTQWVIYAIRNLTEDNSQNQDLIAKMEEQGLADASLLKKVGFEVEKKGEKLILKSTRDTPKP
UniProt O75531: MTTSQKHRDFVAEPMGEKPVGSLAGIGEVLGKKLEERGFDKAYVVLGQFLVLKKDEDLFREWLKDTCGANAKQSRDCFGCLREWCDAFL
UniProt Q8NBF6: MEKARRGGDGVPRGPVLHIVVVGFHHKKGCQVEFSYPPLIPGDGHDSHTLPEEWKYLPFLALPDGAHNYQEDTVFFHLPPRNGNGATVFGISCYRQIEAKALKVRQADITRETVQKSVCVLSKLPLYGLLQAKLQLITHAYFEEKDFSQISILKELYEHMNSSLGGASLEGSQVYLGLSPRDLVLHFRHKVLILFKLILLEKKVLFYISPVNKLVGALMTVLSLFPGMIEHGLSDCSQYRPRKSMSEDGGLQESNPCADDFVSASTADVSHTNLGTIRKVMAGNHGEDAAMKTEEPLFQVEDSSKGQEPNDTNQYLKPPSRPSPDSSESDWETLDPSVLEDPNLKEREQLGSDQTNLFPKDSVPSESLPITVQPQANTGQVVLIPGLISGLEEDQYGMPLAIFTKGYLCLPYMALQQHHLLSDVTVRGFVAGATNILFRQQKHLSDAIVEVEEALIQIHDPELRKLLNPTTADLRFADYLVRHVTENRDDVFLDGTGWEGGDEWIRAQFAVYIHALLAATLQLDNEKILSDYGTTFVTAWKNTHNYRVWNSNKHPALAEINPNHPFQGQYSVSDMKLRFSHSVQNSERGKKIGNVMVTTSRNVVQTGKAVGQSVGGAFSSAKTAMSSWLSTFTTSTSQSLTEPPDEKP
UniProt O94766: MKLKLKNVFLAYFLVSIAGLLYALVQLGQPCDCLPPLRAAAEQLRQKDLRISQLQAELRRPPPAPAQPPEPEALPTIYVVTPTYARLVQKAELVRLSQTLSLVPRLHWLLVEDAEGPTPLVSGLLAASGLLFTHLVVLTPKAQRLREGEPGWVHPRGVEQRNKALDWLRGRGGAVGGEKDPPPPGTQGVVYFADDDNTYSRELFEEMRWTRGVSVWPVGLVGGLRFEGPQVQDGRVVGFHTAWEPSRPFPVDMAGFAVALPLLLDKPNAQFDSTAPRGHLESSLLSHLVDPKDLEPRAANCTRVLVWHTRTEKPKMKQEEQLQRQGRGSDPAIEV
UniProt O15155: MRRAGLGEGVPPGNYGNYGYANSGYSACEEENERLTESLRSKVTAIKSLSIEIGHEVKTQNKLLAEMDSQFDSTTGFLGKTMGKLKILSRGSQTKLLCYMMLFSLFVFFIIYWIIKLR

Columns and labels:
Assay in all cases: log2 fold change, soluble protein after heating vs DMSO (PISA); higher = thermal stabilisation; K562 cells, 10 uM, 30 min; active = over 0.2 and 3.5 SD of the protein, either way, in both replicates (recomputed)
IRAK-1-4 Inhibitor I = compound: C1COCCN1CCN2C3=CC=CC=C3N=C2NC(=O)C4=CC(=CC=C4)[N+](=O)[O-] [IRAK-1-4 Inhibitor I]
Procedure, shortened: (§1)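 K562 cells at 2×10^6 cells/mL were exposed to 10 μM compound for 30 min, then aliquots were heated for 3 min across 48°C-58°C, pooled, and extracted in PBS containing 0.5% NP-40 at 4°C. The supernatant after 21,000xg for 90 min was taken as soluble protein and measured by TMTpro 16plex LC-MS/MS with channel sums equalised. Thermal stability is reported relative to control samples, with values from duplicates. Fold changes are given on a log2 scale.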

ibrutinib = compound: C=CC(=O)N1CCC[C@@H](n2nc(-c3ccc(Oc4ccccc4)cc3)c3c(N)ncnc32)C1 [ibrutinib]
Procedure, shortened: as §1

[1] = compound: CC(=O)c1cnc2ccc(-c3cc(Cl)c(O)c(Cl)c3)nc2c1N[C@H]1CC[C@H](CN(C)C)CC1
Procedure, shortened: as §1

ralimetinib = compound: CC(C)(C)Cn1c(N)nc2ccc(-c3[nH]c(C(C)(C)C)nc3-c3ccc(F)cc3)nc21 [ralimetinib]
Procedure, shortened: as §1

[2] = compound: CC(C)(O)CC(=O)NCCn1ccc2ncnc(Nc3ccc(Oc4cccc(C(F)(F)F)c4)c(Cl)c3)c21
Procedure, shortened: as §1

[3] = compound: CC(C)C1=C2N=C(C=C(N2N=C1)NCC3=CC=CC=C3)NCCCCCCN
Procedure, shortened: as §1

[4] = compound: CC(C)C[C@@H](C=O)NC(=O)[C@H](CC(C)C)NC(=O)[C@H](CC(C)C)NC(=O)OCc1ccccc1
Procedure, shortened: as §1

pinometostat = compound: CC(C)N(C[C@H]1O[C@@H](n2cnc3c(N)ncnc32)[C@H](O)[C@@H]1O)[C@H]1C[C@@H](CCc2nc3cc(C(C)(C)C)ccc3[nH]2)C1 [pinometostat]
Procedure, shortened: as §1

[5] = compound: CC1=C(C(CC(=O)N1)C2=CC=C(C=C2)C(F)(F)F)C(=O)NC3=C(C=C4C(=C3)C=NN4)F
Procedure, shortened: as §1

[6] = compound: CC1=C(C2=C(C=C1)C(=O)C3=CC=CC=C3N2CCCN)C
Procedure, shortened: as §1

[7] = compound: CC1=C(C=C(C=C1)NC(=O)C2=CC(=CC=C2)C(C)(C)C#N)NC3=CC4=C(C=C3)N=CN(C4=O)C
Procedure, shortened: as §1

[8] = compound: CC1=C(C=C(C=C1)NC(=O)C2=CC(=CC=C2)N(C)C)NC(=O)C3=CC=C(C=C3)O
Procedure, shortened: as §1

[9] = compound: CC1=CC=C(C=C1)SC2=C3C=C(SC3=CN=C2)C(=O)N
Procedure, shortened: as §1

[10] = compound: CC1=NC(=CC=C1)C2=C(N=C(N2)C(C)(C)C)C3=CC4=NC=CN=C4C=C3
Procedure, shortened: as §1

Nexturastat A = compound: CCCCN(Cc1ccc(C(=O)NO)cc1)C(=O)Nc1ccccc1 [Nexturastat A]
Procedure, shortened: as §1

vemurafenib = compound: CCCS(=O)(=O)Nc1ccc(F)c(C(=O)c2c[nH]c3ncc(-c4ccc(Cl)cc4)cc23)c1F [vemurafenib]
Procedure, shortened: as §1

[11] = compound: CCCS(=O)(=O)Nc1ccc(F)c(C(=O)c2c[nH]c3ncc(Cl)cc23)c1F
Procedure, shortened: as §1

[12] = compound: CCCc1cc(C)[nH]c(=O)c1CNC(=O)c1cc(-c2ccnc(N3CCN(C)CC3)c2)cc2c1cnn2C(C)C
Procedure, shortened: as §1

givinostat = compound: CCN(CC)Cc1ccc2cc(COC(=O)Nc3ccc(C(=O)NO)cc3)ccc2c1 [givinostat]
Procedure, shortened: as §1

barasertib = compound: CCN(CCCOc1ccc2c(Nc3cc(CC(=O)Nc4cccc(F)c4)[nH]n3)ncnc2c1)CCOP(=O)(O)O [barasertib]
Procedure, shortened: as §1

Measured: log2 fold change

BIRC6 (UniProt Q9NR09)
inactive: IRAK-1-4 Inhibitor I -0.003 | ibrutinib -0.005 | [1] 0.045 | ralimetinib 0.031 | [2] -0.07 | [3] -0.066 | [4] 0.047 | pinometostat 0.076 | [5] 0.003 | [6] 0.026 | [7] 0.024 | [8] -0.015 | [9] -0.05 | [10] 0.011 | Nexturastat A 0.081 | vemurafenib 0.019 | [11] 0.028 | [12] 0.005 | givinostat 0.007 | barasertib -0.01

BROX (UniProt Q5VW32)
inactive: IRAK-1-4 Inhibitor I -0.034 | ibrutinib -0.048 | [1] 0.008 | ralimetinib -0.024 | [2] -0.109 | [3] -0.036 | [4] 0.001 | pinometostat -0.027 | [5] -0.011 | [6] 0 | [7] 0.061 | [8] -0.067 | [9] 0.01 | [10] 0.069 | Nexturastat A -0.113 | vemurafenib 0.099 | [11] 0.085 | [12] 0.052 | givinostat 0.036 | barasertib 0.029

ATRIP (UniProt Q8WXE1)
inactive: IRAK-1-4 Inhibitor I -0.05 | ibrutinib -0.087 | [1] -0.063 | ralimetinib -0.055 | [2] 0.003 | [3] -0.017 | [4] -0.064 | pinometostat 0.087 | [5] 0.06 | [6] 0.064 | [7] 0.089 | [8] 0.026 | [9] -0.04 | [10] -0.04 | Nexturastat A -0.198 | vemurafenib -0.01 | [11] 0.076 | [12] -0.043 | givinostat 0.074 | barasertib -0.011

BORCS5 (UniProt Q969J3)
inactive: IRAK-1-4 Inhibitor I 0.02 | ibrutinib 0.001 | [1] 0.024 | ralimetinib -0.043 | [2] 0.273 | [3] -0.036 | [4] -0.013 | pinometostat -0.009 | [5] 0.018 | [6] -0.005 | [7] 0.071 | [8] 0.047 | [9] -0.013 | [10] 0.032 | Nexturastat A 0.11 | vemurafenib 0.137 | [11] -0.092 | [12] 0 | givinostat -0.017 | barasertib 0.016

BPNT1 (UniProt O95861)
inactive: IRAK-1-4 Inhibitor I 0.023 | ibrutinib 0.044 | [1] 0.024 | ralimetinib -0.033 | [2] -0.011 | [3] 0.051 | [4] -0.013 | pinometostat -0.025 | [5] -0.021 | [6] -0.054 | [7] 0.014 | [8] -0.022 | [9] 0.004 | [10] 0.013 | Nexturastat A -0.029 | vemurafenib -0.007 | [11] 0.025 | [12] -0.039 | givinostat -0.07 | barasertib -0.003

BCL2L1 (UniProt Q07817)
inactive: IRAK-1-4 Inhibitor I 0.025 | ibrutinib -0.006 | [1] -0.061 | ralimetinib 0.101 | [2] 0.023 | [3] -0.046 | [4] -0.06 | pinometostat -0.064 | [5] -0.005 | [6] -0.004 | [7] 0.135 | [8] 0.023 | [9] 0.007 | [10] -0.023 | Nexturastat A -0.004 | vemurafenib 0.061 | [11] 0.046 | [12] -0.064 | givinostat 0.032 | barasertib -0.01

BICD1 (UniProt Q96G01)
inactive: IRAK-1-4 Inhibitor I -0.085 | ibrutinib 0.054 | [1] -0.024 | ralimetinib 0.063 | [2] 0.086 | [3] -0.17 | [4] 0.175 | pinometostat 0.127 | [5] 0.049 | [6] 0.006 | [7] 0.006 | [8] -0.082 | [9] 0.032 | [10] -0.043 | Nexturastat A 0.073 | vemurafenib 0.053 | [11] 0.02 | [12] -0.039 | givinostat 0.024 | barasertib 0.04

BAG1 (UniProt Q99933)
inactive: IRAK-1-4 Inhibitor I -0.009 | ibrutinib -0.022 | [1] -0.014 | ralimetinib -0.04 | [2] -0.04 | [3] 0.024 | [4] -0.006 | pinometostat -0.041 | [5] 0.027 | [6] -0.008 | [7] -0.014 | [8] 0.044 | [9] 0.013 | [10] 0.019 | Nexturastat A -0.024 | vemurafenib 0 | [11] 0.005 | [12] -0.025 | givinostat -0.007 | barasertib -0.003

BACH1 (UniProt O14867)
inactive: IRAK-1-4 Inhibitor I 0.017 | ibrutinib 0.009 | [1] -0.066 | ralimetinib -0.008 | [2] 0.002 | [3] 0.069 | [4] 0.058 | pinometostat -0.003 | [5] 0.022 | [6] -0.035 | [7] 0.011 | [8] -0.008 | [9] 0.076 | [10] -0.042 | Nexturastat A -0.002 | vemurafenib -0.013 | [11] -0.02 | [12] 0.039 | givinostat -0.001 | barasertib 0.03

BNIP2 (UniProt J3KN59)
inactive: IRAK-1-4 Inhibitor I 0.028 | ibrutinib -0.026 | [1] -0.01 | ralimetinib -0.003 | [2] 0.1 | [3] -0.265 | [4] 0.055 | pinometostat -0.028 | [5] -0.002 | [6] 0.032 | [7] 0.01 | [8] 0.032 | [9] 0.028 | [10] -0.071 | Nexturastat A -0.256 | vemurafenib 0.016 | [11] 0.06 | [12] -0.147 | givinostat -0.035 | barasertib 0.017

BLOC1S2 (UniProt Q6QNY1)
inactive: IRAK-1-4 Inhibitor I -0.034 | ibrutinib -0.001 | [1] 0.026 | ralimetinib -0.042 | [2] 0.032 | [3] 0.09 | [4] 0.042 | pinometostat 0.053 | [5] 0.011 | [6] 0.043 | [7] -0.101 | [8] 0.02 | [9] 0.093 | [10] 0.108 | Nexturastat A 0.02 | vemurafenib -0.022 | [11] 0.075 | [12] -0.218 | givinostat -0.145 | barasertib 0.003

ATXN10 (UniProt Q9UBB4)
inactive: IRAK-1-4 Inhibitor I 0.03 | ibrutinib -0.023 | [1] -0.01 | ralimetinib -0.04 | [2] -0.031 | [3] -0.016 | [4] -0.042 | pinometostat -0.032 | [5] 0.026 | [6] 0.031 | [7] 0.036 | [8] -0.019 | [9] -0.025 | [10] 0.043 | Nexturastat A -0.02 | vemurafenib 0.012 | [11] 0.02 | [12] 0.057 | givinostat -0.001 | barasertib 0.001

BANF1 (UniProt O75531)
inactive: IRAK-1-4 Inhibitor I -0.019 | ibrutinib -0.037 | [1] 0.024 | ralimetinib -0.098 | [2] -0.12 | [3] 0.081 | [4] -0.044 | pinometostat -0.064 | [5] 0.097 | [6] 0.202 | [7] -0.011 | [8] -0.092 | [9] 0.031 | [10] 0.026 | Nexturastat A -0.057 | vemurafenib 0.073 | [11] -0.093 | [12] -0.06 | givinostat -0.034 | barasertib 0.055

AVL9 (UniProt Q8NBF6)
inactive: IRAK-1-4 Inhibitor I 0.021 | ibrutinib -0.002 | [1] -0.041 | ralimetinib -0.047 | [2] -0.038 | [3] -0.146 | [4] -0.049 | pinometostat -0.055 | [5] 0.01 | [6] 0.013 | [7] 0.018 | [8] -0.007 | [9] 0.052 | [10] 0.034 | Nexturastat A -0.024 | vemurafenib 0.041 | [11] 0.086 | [12] -0.071 | givinostat 0.034 | barasertib 0.007

B3GAT3 (UniProt O94766)
inactive: IRAK-1-4 Inhibitor I 0.006 | ibrutinib 0.016 | [1] 0.002 | ralimetinib -0.053 | [2] -0.066 | [3] 0.041 | [4] 0.002 | pinometostat 0.029 | [5] 0.011 | [6] 0.061 | [7] -0.098 | [8] -0.055 | [9] 0.034 | [10] -0.028 | Nexturastat A -0.016 | vemurafenib -0.027 | [11] 0.019 | [12] -0.021 | givinostat 0.037 | barasertib 0.088

BET1 (UniProt O15155)
inactive: IRAK-1-4 Inhibitor I 0.042 | ibrutinib -0.003 | [1] 0.034 | ralimetinib 0.002 | [2] 0.01 | [3] -0.06 | [4] 0.034 | pinometostat 0.008 | [5] 0.021 | [6] 0.026 | [7] 0.03 | [8] -0.027 | [9] 0.017 | [10] -0.008 | Nexturastat A -0.065 | vemurafenib 0.025 | [11] 0.015 | [12] -0.083 | givinostat -0.016 | barasertib -0.017

2 entries picked at random from the list so far:
AVL9 (UniProt Q8NBF6)
inactive: IRAK-1-4 Inhibitor I 0.021 | ibrutinib -0.002 | [1] -0.041 | ralimetinib -0.047 | [2] -0.038 | [3] -0.146 | [4] -0.049 | pinometostat -0.055 | [5] 0.01 | [6] 0.013 | [7] 0.018 | [8] -0.007 | [9] 0.052 | [10] 0.034 | Nexturastat A -0.024 | vemurafenib 0.041 | [11] 0.086 | [12] -0.071 | givinostat 0.034 | barasertib 0.007

BAG1 (UniProt Q99933)
inactive: IRAK-1-4 Inhibitor I -0.009 | ibrutinib -0.022 | [1] -0.014 | ralimetinib -0.04 | [2] -0.04 | [3] 0.024 | [4] -0.006 | pinometostat -0.041 | [5] 0.027 | [6] -0.008 | [7] -0.014 | [8] 0.044 | [9] 0.013 | [10] 0.019 | Nexturastat A -0.024 | vemurafenib 0 | [11] 0.005 | [12] -0.025 | givinostat -0.007 | barasertib -0.003
